The supplement of paper PMC6119338
The other results are listed elsewhere or left out. Many values rest on one well or one pass, so single values are uncertain.

test system: Plasmodium berghei sporozoites; test: residual sporozoite gliding motility relative to DMSO control; higher = less inhibition of motility; settings: 10 µM; incubation time 30 min

Residual sporozoite gliding motility, > 50%:
CCOc1cc(Cl)c(C(C)NC(=O)c2cccc(OC)c2)cc1OCC (stereo not given)
OC(CNC1CCCC1)Cn1c2ccccc2c2ccccc21 (stereo not given)
CC(C)(C)C(=O)Nc1ccc(C(=O)Nc2cccc(-c3nc4ccccc4[nH]3)c2)cc1
COc1ccc(-c2nonc2NC(=O)c2cccc(Cl)c2)cc1OC
CCCc1c(C)nc2ccc(Br)cc2c1O
COc1cc(SC)ccc1C(=O)N1CCCC(C)C1 (stereo not given)
FC(F)(F)c1cccc(CNC2CCN(CCc3ccccc3)CC2)c1
COc1ccc(/C=C2/SC(Nc3ccc(F)cc3)=NC2=O)c(OC)c1
Cc1c(C)n(CC(O)CNC2CCCCC2C)c2ccccc12 (stereo not given)
Cc1ccc(-c2cc3nc4c(c(O)n3n2)CCCC4)cc1
N=c1c2ccccc2nnn1-c1cccc(C(F)(F)F)c1
O=C(NCc1ccco1)C1CCN(S(=O)(=O)c2ccc(Cl)cc2)CC1
COc1cc2c(cc1OC)C1=NNC(=O)C1=NC(C)(C)C2
Nc1nc(Nc2cccc(F)c2)nc2ccccc12
OCCNc1nc(Nc2ccc(Cl)c(Cl)c2)nc2ccccc12
CCOc1c(Cl)cc(CNCC(O)c2ccccc2)cc1OC (stereo not given)
COc1ccc(-n2ccnc2SCC(=O)Nc2cc(C)ccc2C)c(OC)c1
COCCn1c(C)nc2ccccc2c1=O
Oc1c2c(nc3cc(-c4ccccc4)nn13)CCCC2
O=C(Nc1ccccc1O)c1ccc(Oc2cccc(C(=O)Nc3ccccc3O)c2)cc1

Two neighbouring compounds from above:
Residual sporozoite gliding motility, > 50%:
COc1ccc(-c2nonc2NC(=O)c2cccc(Cl)c2)cc1OC
CCCc1c(C)nc2ccc(Br)cc2c1O
